Test results from PMC7950113.

Protein sequences, listed by entry. Tags and fused reporters are not part of them. Lines headed by an entry give the natural chain unless they say otherwise; changes in a name come on top. Chains listed by the source or under a name are the forms on record and can include a tag or linker. Residues count along the entry.
FLAG-tagged thyroglobulin, WT (P01266, residues 20-2768): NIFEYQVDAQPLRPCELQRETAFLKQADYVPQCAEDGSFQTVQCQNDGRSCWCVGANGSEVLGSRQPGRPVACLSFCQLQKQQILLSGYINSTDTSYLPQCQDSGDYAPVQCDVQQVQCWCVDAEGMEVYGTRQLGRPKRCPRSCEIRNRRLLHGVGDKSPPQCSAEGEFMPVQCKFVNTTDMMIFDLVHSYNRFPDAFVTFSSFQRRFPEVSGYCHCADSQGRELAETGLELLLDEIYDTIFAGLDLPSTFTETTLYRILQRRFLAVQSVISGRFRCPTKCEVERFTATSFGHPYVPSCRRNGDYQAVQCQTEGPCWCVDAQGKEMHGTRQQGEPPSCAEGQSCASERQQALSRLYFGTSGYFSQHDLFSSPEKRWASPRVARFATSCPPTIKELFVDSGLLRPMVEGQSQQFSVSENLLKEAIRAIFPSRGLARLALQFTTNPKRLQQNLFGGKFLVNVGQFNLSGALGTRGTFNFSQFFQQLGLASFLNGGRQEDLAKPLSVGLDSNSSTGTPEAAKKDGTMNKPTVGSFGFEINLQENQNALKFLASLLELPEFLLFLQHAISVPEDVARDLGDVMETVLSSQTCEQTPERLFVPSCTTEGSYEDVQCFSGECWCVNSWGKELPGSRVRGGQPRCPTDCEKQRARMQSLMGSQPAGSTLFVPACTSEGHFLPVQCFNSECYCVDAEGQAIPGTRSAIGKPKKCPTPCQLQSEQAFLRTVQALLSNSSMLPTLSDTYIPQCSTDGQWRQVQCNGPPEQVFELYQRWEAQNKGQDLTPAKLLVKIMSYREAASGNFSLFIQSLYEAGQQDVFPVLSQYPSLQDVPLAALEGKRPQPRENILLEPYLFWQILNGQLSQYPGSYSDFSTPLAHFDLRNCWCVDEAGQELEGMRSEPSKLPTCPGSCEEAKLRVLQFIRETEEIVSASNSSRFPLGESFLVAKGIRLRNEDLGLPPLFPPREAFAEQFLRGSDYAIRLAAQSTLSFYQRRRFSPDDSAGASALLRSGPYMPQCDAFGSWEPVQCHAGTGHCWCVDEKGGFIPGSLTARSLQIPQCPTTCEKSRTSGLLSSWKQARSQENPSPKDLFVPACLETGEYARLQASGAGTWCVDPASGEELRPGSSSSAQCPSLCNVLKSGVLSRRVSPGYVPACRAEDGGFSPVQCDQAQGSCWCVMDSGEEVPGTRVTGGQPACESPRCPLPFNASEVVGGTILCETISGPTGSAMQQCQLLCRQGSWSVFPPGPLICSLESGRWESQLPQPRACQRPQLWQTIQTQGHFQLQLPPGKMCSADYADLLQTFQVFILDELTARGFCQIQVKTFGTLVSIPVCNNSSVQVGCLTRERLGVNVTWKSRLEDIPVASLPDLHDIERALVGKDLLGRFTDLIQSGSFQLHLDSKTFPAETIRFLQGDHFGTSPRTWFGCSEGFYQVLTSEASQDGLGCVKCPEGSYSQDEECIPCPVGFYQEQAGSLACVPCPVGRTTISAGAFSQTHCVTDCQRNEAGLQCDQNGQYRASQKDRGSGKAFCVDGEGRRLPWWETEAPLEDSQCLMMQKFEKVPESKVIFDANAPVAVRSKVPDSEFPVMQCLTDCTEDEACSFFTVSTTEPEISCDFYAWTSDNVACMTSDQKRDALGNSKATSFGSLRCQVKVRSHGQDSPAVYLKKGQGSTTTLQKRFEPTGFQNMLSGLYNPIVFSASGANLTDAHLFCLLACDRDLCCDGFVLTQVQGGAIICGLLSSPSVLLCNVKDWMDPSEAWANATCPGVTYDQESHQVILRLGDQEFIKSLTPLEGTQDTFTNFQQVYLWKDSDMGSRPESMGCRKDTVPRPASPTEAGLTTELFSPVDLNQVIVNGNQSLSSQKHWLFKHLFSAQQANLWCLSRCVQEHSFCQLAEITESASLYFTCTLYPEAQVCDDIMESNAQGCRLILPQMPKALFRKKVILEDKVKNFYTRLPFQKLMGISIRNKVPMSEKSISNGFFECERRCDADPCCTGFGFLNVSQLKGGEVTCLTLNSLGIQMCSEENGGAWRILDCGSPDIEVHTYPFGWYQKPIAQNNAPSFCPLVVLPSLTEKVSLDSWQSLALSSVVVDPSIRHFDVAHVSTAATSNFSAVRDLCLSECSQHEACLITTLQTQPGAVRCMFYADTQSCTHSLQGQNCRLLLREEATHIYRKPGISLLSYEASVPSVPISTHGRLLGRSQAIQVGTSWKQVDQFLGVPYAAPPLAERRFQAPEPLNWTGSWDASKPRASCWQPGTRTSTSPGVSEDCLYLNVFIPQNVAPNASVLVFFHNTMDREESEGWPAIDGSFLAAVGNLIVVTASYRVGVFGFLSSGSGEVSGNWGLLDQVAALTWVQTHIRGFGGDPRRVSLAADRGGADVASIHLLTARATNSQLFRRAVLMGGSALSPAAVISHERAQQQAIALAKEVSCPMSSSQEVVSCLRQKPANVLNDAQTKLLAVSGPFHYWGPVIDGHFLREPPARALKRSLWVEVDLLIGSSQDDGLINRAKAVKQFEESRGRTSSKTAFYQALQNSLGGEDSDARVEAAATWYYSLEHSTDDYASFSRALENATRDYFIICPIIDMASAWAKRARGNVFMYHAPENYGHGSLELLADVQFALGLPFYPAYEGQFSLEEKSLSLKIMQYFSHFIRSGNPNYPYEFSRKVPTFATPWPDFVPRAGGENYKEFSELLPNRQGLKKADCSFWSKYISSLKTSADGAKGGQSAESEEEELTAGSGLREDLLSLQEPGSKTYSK
FLAG-tagged thyroglobulin G2341R (P01266, form named): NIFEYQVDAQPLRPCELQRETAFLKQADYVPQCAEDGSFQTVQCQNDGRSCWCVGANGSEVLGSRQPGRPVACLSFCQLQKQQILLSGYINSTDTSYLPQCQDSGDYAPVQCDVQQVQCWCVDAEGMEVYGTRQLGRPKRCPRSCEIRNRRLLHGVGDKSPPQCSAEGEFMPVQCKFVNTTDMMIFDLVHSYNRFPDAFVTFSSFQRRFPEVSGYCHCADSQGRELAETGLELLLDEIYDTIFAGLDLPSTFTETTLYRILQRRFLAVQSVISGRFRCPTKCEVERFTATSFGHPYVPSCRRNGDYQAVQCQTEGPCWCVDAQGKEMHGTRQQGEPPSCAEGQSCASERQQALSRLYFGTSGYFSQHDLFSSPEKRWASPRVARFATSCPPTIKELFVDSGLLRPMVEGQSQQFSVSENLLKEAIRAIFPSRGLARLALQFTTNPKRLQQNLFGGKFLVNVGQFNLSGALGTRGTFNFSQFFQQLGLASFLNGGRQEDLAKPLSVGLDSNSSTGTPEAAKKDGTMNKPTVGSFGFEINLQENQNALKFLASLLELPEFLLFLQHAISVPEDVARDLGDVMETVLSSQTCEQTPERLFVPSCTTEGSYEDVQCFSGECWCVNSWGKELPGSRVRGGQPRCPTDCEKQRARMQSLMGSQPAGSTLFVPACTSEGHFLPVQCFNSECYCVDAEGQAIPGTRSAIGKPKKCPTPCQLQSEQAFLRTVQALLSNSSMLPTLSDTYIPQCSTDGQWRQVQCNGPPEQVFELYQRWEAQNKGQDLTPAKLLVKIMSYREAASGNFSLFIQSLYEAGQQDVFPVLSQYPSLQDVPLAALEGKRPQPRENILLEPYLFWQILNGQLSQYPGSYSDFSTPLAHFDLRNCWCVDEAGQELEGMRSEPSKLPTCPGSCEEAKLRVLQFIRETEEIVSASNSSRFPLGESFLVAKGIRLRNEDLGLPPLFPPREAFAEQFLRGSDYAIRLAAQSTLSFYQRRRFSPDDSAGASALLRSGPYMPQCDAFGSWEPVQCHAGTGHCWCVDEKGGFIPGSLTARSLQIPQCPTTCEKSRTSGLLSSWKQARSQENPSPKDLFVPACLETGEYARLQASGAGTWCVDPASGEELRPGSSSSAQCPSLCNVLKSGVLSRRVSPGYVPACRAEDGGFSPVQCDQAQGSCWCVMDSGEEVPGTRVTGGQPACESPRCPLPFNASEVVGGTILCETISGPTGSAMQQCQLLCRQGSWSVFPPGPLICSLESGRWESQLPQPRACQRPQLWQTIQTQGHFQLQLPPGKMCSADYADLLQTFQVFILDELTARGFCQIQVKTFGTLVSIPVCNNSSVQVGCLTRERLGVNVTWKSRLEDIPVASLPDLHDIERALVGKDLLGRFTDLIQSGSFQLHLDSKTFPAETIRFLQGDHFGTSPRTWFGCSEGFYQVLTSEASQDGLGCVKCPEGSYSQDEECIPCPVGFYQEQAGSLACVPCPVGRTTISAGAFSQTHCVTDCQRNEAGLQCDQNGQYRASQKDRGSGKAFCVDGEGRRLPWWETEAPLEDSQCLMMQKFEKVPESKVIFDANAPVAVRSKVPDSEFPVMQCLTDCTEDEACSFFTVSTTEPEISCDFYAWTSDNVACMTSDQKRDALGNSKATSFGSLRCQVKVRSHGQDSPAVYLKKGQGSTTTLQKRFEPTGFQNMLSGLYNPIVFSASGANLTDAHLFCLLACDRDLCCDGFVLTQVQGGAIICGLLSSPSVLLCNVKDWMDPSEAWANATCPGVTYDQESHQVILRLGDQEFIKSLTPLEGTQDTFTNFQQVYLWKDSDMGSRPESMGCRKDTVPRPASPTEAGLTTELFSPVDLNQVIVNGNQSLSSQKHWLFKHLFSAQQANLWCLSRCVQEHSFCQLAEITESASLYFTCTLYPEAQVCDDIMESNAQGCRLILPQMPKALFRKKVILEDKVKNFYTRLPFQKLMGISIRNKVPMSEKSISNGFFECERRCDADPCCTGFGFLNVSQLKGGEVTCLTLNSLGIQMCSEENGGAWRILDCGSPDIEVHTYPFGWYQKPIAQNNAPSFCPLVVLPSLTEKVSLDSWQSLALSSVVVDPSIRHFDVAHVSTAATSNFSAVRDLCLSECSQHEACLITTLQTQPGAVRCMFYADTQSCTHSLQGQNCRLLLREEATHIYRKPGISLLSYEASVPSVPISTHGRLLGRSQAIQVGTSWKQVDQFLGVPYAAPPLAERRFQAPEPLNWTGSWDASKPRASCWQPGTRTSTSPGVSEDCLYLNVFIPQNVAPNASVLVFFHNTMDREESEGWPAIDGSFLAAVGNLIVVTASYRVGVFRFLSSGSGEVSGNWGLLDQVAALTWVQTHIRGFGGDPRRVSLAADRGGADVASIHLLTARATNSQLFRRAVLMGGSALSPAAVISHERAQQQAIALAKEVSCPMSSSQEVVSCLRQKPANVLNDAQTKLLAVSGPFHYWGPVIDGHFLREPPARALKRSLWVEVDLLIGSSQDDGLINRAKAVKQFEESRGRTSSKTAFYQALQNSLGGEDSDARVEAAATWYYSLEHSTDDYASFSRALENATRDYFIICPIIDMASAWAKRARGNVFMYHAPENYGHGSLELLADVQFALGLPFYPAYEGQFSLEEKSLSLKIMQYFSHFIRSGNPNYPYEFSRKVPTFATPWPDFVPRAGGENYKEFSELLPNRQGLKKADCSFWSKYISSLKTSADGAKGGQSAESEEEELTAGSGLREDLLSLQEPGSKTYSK

B1: protein disulfide isomerase family A member 6 (protein, UniProt Q15084 20-440)
chain: LYSSSDDVIELTPSNFNREVIQSDSLWLVEFYAPWCGHCQRLTPEWKKAATALKDVVKVGAVDADKHHSLGGQYGVQGFPTIKIFGSNKNRPEDYQGGRTGEAIVDAALSALRQLVKDRLGGRSGGYSSGKQGRSDSSSKKDVIELTDDSFDKNVLDSEDVWMVEFYAPWCGHCKNLEPEWAAAASEVKEQTKGKVKLAAVDATVNQVLASRYGIRGFPTIKIFQKGESPVDYDGGRTRSDIVSRALDLFSDNAPPPELLEIINEDIAKRTCEEHQLCVVAVLPHILDTGAAGRNSYLEVLLKLADKYKKKMWGWLWTEAGAQSELETALGIGGFGYPAMAAINARKMKFALLKGSFSEQGINEFLRELSFGRGSTAPVGGGAFPTIVEREPWDGRDGELPVEDDIDLSDVELDDLGKDEL
B2: ER degradation enhancing alpha-mannosidase-like 3 (protein, UniProt Q9BZQ6 42-932)
chain: EPMSREEKQKLGNQVLEMFDHAYGNYMEHAYPADELMPLTCRGRVRGQEPSRGDVDDALGKFSLTLIDSLDTLVVLNKTKEFEDAVRKVLRDVNLDNDVVVSVFETNIRVLGGLLGGHSLAIMLKEKGEYMQWYNDELLQMAKQLGYKLLPAFNTTSGLPYPRINLKFGIRKPEARTGTETDTCTACAGTLILEFAALSRFTGATIFEEYARKALDFLWEKRQRSSNLVGVTINIHTGDWVRKDSGVGAGIDSYYEYLLKAYVLLGDDSFLERFNTHYDAIMRYISQPPLLLDVHIHKPMLNARTWMDALLAFFPGLQVLKGDIRPAIETHEMLYQVIKKHNFLPEAFTTDFRVHWAQHPLRPEFAESTYFLYKATGDPYYLEVGKTLIENLNKYARVPCGFAAMKDVRTGSHEDRMDSFFLAEMFKYLYLLFADKEDIIFDIEDYIFTTEAHLLPLWLSTTNQSISKKNTTSEYTELDDSNFDWTCPNTQILFPNDPLYAQSIREPLKNVVDKSCPRGIIRVEESFRSGAKPPLRARDFMATNPEHLEILKKMGVSLIHLKDGRVQLVQHAIQAASSIDAEDGLRFMQEMIELSSQQQKEQQLPPRAVQIVSHPFFGRVVLTAGPAQFGLDLSKHKETRGFVASSKPSNGCSELTNPEAVMGKIALIQRGQCMFAEKARNIQNAGAIGGIVIDDNEGSSSDTAPLFQMAGDGKDTDDIKIPMLFLFSKEGSIILDAIREYEEVEVLLSDKAKDRDPEMENEEQPSSENDSQNQSGEQISSSSQEVDLVDQESSEENSLNSHPESLSLADMDNAASISPSEQTSNPTENHETTNLNGECTDLDNQLQEQSETEEDSNPNVSWGKKVQPIDSILADWNEDIEAFEMMEKDEL
B3: RAD-dependent oxidoreductase domain containing 2 (protein, UniProt Q8IWF2 27-684)
chain: VPPRRDYCVLGAGPAGLQMAYFLQRAGRDYAVFERAPRPGSFFTRYPRHRKLISINKRYTGKANAEFNLRHDWNSLLSHDPRLLFRHYSRAYFPDARDMVRYLGDFADTLGLRVQYNTTIAHVTLDKDRQAWNGHYFILTDQKGQVHQCSVLFVATGLSVPNQVDFPGSEYAEGYESVSVDPEDFVGQNVLILGRGNSAFETAENILGVTNFIHMLSRSRVRLSWATHYVGDLRAINNGLLDTYQLKSLDGLLESDLTDLAILKDSKGKFHVTPKFFLEEANTNQSADSITLPQDDNDNFAMRVPYDRVIRCLGWNFDFSIFNKSLRLNSGNAFGKKYPLIRASYESKGSRGLFILGTASHSVDYRKSAGGFIHGFRYTVRAVHRLLEHRHHSVTWPATELPITQLTSSIVRRVNEASGLYQMFGVLADVILLKENSTAFEYLEEFPIQMLAQLETLTGRKAKHGLFVINMEYGRNFSGPDKDVFFDDRSVGHTEDAWQSNFLHPVIYYYRYLPTEQEVRFRPAHWPLPRPTAIHHIVEDFLTDWTAPIGHILPLRRFLENCLDTDLRSFYAESCFLFALTRQKLPPFCQQGYLRMQGLVSTESLWQHRVESRLLRDYAPTGRRLEDSSQQLGDQEPLGSPLAPGPLAQSVDSNKEEL

The binders below were run against FLAG-tagged thyroglobulin G2341R (human) (UniProt P01266) (assay: affinity purification with mass spectrometry; FLAG-Tg variants transiently expressed in HEK293 cells; cells cross-linked with 0.5 mM DSP, RIPA lysate, M2 anti-flag agarose or G1 Anti-DYKDDDDK resin overnight at 4 °C, four RIPA washes; TMT sixplex LC-MS/MS against mock AP (untagged Tg, EGFP or tdTomato)).
B1 was tested, and the binding was “binds”. For B2, the binding was “binds”. For B3, the binding was “binds”.

Each binder was assayed against FLAG-tagged thyroglobulin A2234D (human) (UniProt P01266) in the same assay as above.
For B1, the binding was “binds”. With B2 the binding was “binds”. With B3 the binding was “binds”.

These binders were tested against FLAG-tagged thyroglobulin L2284P (human) (UniProt P01266) in the same assay as above.
In the case of B1, the binding is reported as “binds”. In the case of B2, the binding is reported as “binds”. For B3, the binding was “binds”.

Each binder was assayed against FLAG-tagged thyroglobulin C1264R (human) (UniProt P01266) in the same assay as above.
With B1 the binding was “binds”. B2 was tested, and the binding was “binds”. B3 was tested, and the binding was “binds”.

What follows are binders tested against FLAG-tagged thyroglobulin, WT (human) (UniProt P01266) in the same assay as above.
For B1, the binding was “binds”. In the case of B2, the binding is reported as “binds”. For B3, the binding was “binds”.

These are yes or no findings as the source states them, for the method shown. Binding seen in cells or lysates may run through a third protein. A yes stands for co-enrichment or nearness to the bait. Other partners may have been found.
